Source: patent US20230181543A1, “TREATMENT OF CARM1-OVEREXPRESSING AND/OR ARID1A MUTANT CANCERS WITH IRE-1/XBP-1 INHIBITORS” (The Wistar Institute of Anatomy and Biology, priority 2020, published 2023)
For at least one compound, name, drawing or mass did not settle the structure.

Test system: A1847 and PEO4 cells
Assay: Colony formation assays with IRE-1α inhibitors in wildtype and CARM1 knockout cells
Type: cell-based
Details: wildtype vs CARM1 knockout A1847 and PEO4 cells (FIG. 15A-B)

SMILES | sensitivity to IRE-1α inhibitors, survival curves and IC50 of colony formation
Cc1cc(=O)oc2c(C=O)c(O)ccc12 [4μ8c, 4μ8C] | Wild-type cells are significantly more sensitive to IRE-1α inhibitors
O=c1oc2c(C3OCCCO3)c(O)ccc2c2c1CNCC2 [B-I09] | Wild-type cells are significantly more sensitive to IRE-1α inhibitors
